Record: PubChem BioAssay AID652243 (Drosophila RNAi Screening Center, 2013)

Purpose: 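Fly genes required for human androgen receptor driven transcription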 (primary screen)
Cell system: Drosophila S2R+ cells
Knock-down reagent: long dsRNA against Drosophila genes
Time to read-out: 72 h (48 h, then 24 h hormone)
Challenge: synthetic androgen R1881 at 10 nM for 24 h
Measurement: 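Firefly light from an androgen-responsive reporter and Renilla control light per well, raw and unnormalised, for each of two replicates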
Reading the numbers: firefly reporter light: higher = more light from androgen-responsive reporter; Renilla control light: higher = more constitutive control signal (cell number, transfection)
Active means: 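Hit when the log firefly-to-Renilla ratio dropped or increased by a fixed fold versus the mean of GFP or LacZ controls across duplicate plates; lowering cut given as 1.5 and as 3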
Calls: active = hit: reporter lowered or raised; inactive = no hit
In all, the deposit lists about 24,000 reagents; shown is an unselected part of those with a known target gene and a result. Over the whole deposit, 246 (1%) were called active. 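Plates not normalised; calls are printed but the firefly/Renilla ratio behind them is not deposited; fold cut for lowering reported inconsistently.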 Raw values vary from plate to plate and are shown uncorrected. A plus sign joins genes that one reagent is predicted to hit. Not stated in the record: the amount of reagent.

Silencing of CG10814 [DRSC06004] resulted in: firefly reporter light, replicate 1 = 1.88e6; firefly reporter light, replicate 2 = 1.66e6; Renilla control light, replicate 1 = 2.67e6; Renilla control light, replicate 2 = 2.74e6; inactive.
CG10337 [DRSC02038] scored firefly reporter light, replicate 1 = 1.28e5; firefly reporter light, replicate 2 = 1.59e5; Renilla control light, replicate 1 = 1.38e6; Renilla control light, replicate 2 = 1.38e6; inactive.
After knock-down of BoYb [DRSC11637], the screen gave firefly reporter light, replicate 1 = 59630; firefly reporter light, replicate 2 = 61599; Renilla control light, replicate 1 = 4.52e5; Renilla control light, replicate 2 = 4.12e5; inactive.
For CG14095 [DRSC10098], the values are firefly reporter light, replicate 1 = 1.87e5; firefly reporter light, replicate 2 = 1.53e5; Renilla control light, replicate 1 = 2.10e6; Renilla control light, replicate 2 = 1.65e6; inactive.
Silencing of CG42820 [DRSC02265] came out at: firefly reporter light, replicate 1 = 1.98e5; firefly reporter light, replicate 2 = 2.38e5; Renilla control light, replicate 1 = 1.64e6; Renilla control light, replicate 2 = 1.61e6; inactive.
CG42820 [DRSC28699] scored firefly reporter light, replicate 1 = 4.41e5; firefly reporter light, replicate 2 = 4.64e5; Renilla control light, replicate 1 = 1.55e6; Renilla control light, replicate 2 = 1.51e6; inactive.
Taf6 [DRSC11299] gave firefly reporter light, replicate 1 = 22719; firefly reporter light, replicate 2 = 27094; Renilla control light, replicate 1 = 2.77e5; Renilla control light, replicate 2 = 2.29e5; inactive.
Depletion of shd [DRSC11129] gave: firefly reporter light, replicate 1 = 1.97e5; firefly reporter light, replicate 2 = 1.34e5; Renilla control light, replicate 1 = 1.69e6; Renilla control light, replicate 2 = 1.70e6; inactive.
Against CG5937 [DRSC18392], the values are firefly reporter light, replicate 1 = 1.52e5; firefly reporter light, replicate 2 = 2.26e5; Renilla control light, replicate 1 = 1.33e6; Renilla control light, replicate 2 = 1.59e6; inactive.
After knock-down of CG5937 [DRSC26696], the record shows firefly reporter light, replicate 1 = 2.85e5; firefly reporter light, replicate 2 = 2.49e5; Renilla control light, replicate 1 = 5.92e5; Renilla control light, replicate 2 = 6.51e5; inactive.
Against CG31445 [DRSC14443], the values are firefly reporter light, replicate 1 = 1.42e5; firefly reporter light, replicate 2 = 1.36e5; Renilla control light, replicate 1 = 9.09e5; Renilla control light, replicate 2 = 6.08e5; inactive.
With knock-down of CG31445 [DRSC28642], the screen gave firefly reporter light, replicate 1 = 4.47e5; firefly reporter light, replicate 2 = 5.31e5; Renilla control light, replicate 1 = 1.42e6; Renilla control light, replicate 2 = 1.46e6; inactive.
Depletion of CG13676 [DRSC10035] gave: firefly reporter light, replicate 1 = 2.79e5; firefly reporter light, replicate 2 = 1.81e5; Renilla control light, replicate 1 = 2.22e6; Renilla control light, replicate 2 = 1.68e6; inactive.
Silencing of Lkr [DRSC09754] came out at: firefly reporter light, replicate 1 = 79281; firefly reporter light, replicate 2 = 88221; Renilla control light, replicate 1 = 9.83e5; Renilla control light, replicate 2 = 8.82e5; inactive.
CG3984 [DRSC15530] gave firefly reporter light, replicate 1 = 2.26e5; firefly reporter light, replicate 2 = 1.50e5; Renilla control light, replicate 1 = 2.85e6; Renilla control light, replicate 2 = 2.97e6; inactive.
For Mur29B [DRSC01018] the deposit lists firefly reporter light, replicate 1 = 1.90e5; firefly reporter light, replicate 2 = 1.54e5; Renilla control light, replicate 1 = 5.26e5; Renilla control light, replicate 2 = 4.75e5; inactive.
After knock-down of Mur29B [DRSC02376] the results were firefly reporter light, replicate 1 = 4.36e5; firefly reporter light, replicate 2 = 2.90e5; Renilla control light, replicate 1 = 2.26e6; Renilla control light, replicate 2 = 2.02e6; inactive.

Laid out differently: 4 of the entries above
| gene | DRSC id | firefly reporter light, replicate 1 | firefly reporter light, replicate 2 | Renilla control light, replicate 1 | Renilla control light, replicate 2 | Outcome |
| --- | --- | --- | --- | --- | --- | --- |
| CG42820 | DRSC02265 | 1.98e5 | 2.38e5 | 1.64e6 | 1.61e6 | inactive |
| CG42820 | DRSC28699 | 4.41e5 | 4.64e5 | 1.55e6 | 1.51e6 | inactive |
| Taf6 | DRSC11299 | 22719 | 27094 | 2.77e5 | 2.29e5 | inactive |
| shd | DRSC11129 | 1.97e5 | 1.34e5 | 1.69e6 | 1.70e6 | inactive |

The list goes on.
Depletion of CG9008 [DRSC01889] gave: firefly reporter light, replicate 1 = 8.69e5; firefly reporter light, replicate 2 = 8.31e5; Renilla control light, replicate 1 = 1.07e6; Renilla control light, replicate 2 = 7.45e5; inactive.
CG9008 [DRSC26675] scored firefly reporter light, replicate 1 = 3.29e5; firefly reporter light, replicate 2 = 2.66e5; Renilla control light, replicate 1 = 6.66e5; Renilla control light, replicate 2 = 5.97e5; inactive.
Against Sec61alpha [DRSC03256] the deposit lists firefly reporter light, replicate 1 = 1.38e6; firefly reporter light, replicate 2 = 1.66e6; Renilla control light, replicate 1 = 2.16e6; Renilla control light, replicate 2 = 2.60e6; inactive.
After knock-down of CG8860 [DRSC07291] the results were firefly reporter light, replicate 1 = 5.41e5; firefly reporter light, replicate 2 = 3.95e5; Renilla control light, replicate 1 = 2.41e6; Renilla control light, replicate 2 = 2.98e6; inactive.
With knock-down of CG8860 [DRSC25286] the results were firefly reporter light, replicate 1 = 1.01e6; firefly reporter light, replicate 2 = 8.18e5; Renilla control light, replicate 1 = 1.25e6; Renilla control light, replicate 2 = 1.29e6; inactive.
CG17198 + CG17197 [DRSC15190] scored firefly reporter light, replicate 1 = 1.98e5; firefly reporter light, replicate 2 = 1.86e5; Renilla control light, replicate 1 = 2.43e6; Renilla control light, replicate 2 = 2.53e6; inactive.
Depletion of CG17198 + CG17197 [DRSC15191] resulted in: firefly reporter light, replicate 1 = 1.90e5; firefly reporter light, replicate 2 = 2.49e5; Renilla control light, replicate 1 = 2.07e6; Renilla control light, replicate 2 = 1.86e6; inactive.
Against CG31109 [DRSC14648], the values are firefly reporter light, replicate 1 = 3.14e5; firefly reporter light, replicate 2 = 3.23e5; Renilla control light, replicate 1 = 3.52e6; Renilla control light, replicate 2 = 3.12e6; inactive.
Knock-down of Ada1-1 + Ada1-2 [DRSC01220] gave: firefly reporter light, replicate 1 = 1.31e5; firefly reporter light, replicate 2 = 1.40e5; Renilla control light, replicate 1 = 5.88e5; Renilla control light, replicate 2 = 4.42e5; inactive.
Knock-down of Ada1-1 + Ada1-2 [DRSC01222] came out at: firefly reporter light, replicate 1 = 75640; firefly reporter light, replicate 2 = 1.07e5; Renilla control light, replicate 1 = 5.16e5; Renilla control light, replicate 2 = 5.23e5; active.
For Ada1-1 + Ada1-2 [DRSC28646] the deposit lists firefly reporter light, replicate 1 = 3.22e5; firefly reporter light, replicate 2 = 4.00e5; Renilla control light, replicate 1 = 1.28e6; Renilla control light, replicate 2 = 1.04e6; inactive.
